For 7 compounds, survivor count and T/C results are on record in PubChem BioAssay AID222 (DTP/NCI, 2004).

The structures appear in SMILES notation. The list shows only some results of the screen, not a fair sample: it gathers tests that were run many times, whatever their T/C, doses with no T/C, and many T/C values between a quarter and a half above the control. Further doses and runs are listed elsewhere. T/C gives the treated animals as a percentage of the vehicle group. Some entries give survivors of the animals treated and no T/C: the source holds a T/C of zero for them, seemingly a mark for toxic or unscored doses. Some doses without a T/C left all or most animals alive at the check, yet need not have been tolerated: survival well below the control is almost never listed, so the zero probably covers shortened survival too. Survivors were counted at the toxicity check, usually on the fifth day, unless a day is given; later deaths do not show. Schedules are NCI's codes, read here as Q, the interval in days (D) or hours (H), X, the number of doses. Some entries were tested several times; the values are given in rising order. Some structures stand for samples that the source files as different forms (salt, stereo form or complex); doses refer to the form tested. For survival time, the PubChem record calls one and a half times the control and up active, and a quarter to a half above the control has no call in these data; cut-offs in other NCI protocols can differ. Some T/C values are followed by the survivors on the day toxicity was checked, most often the fifth; where none is given, no animal had died by that day. Brackets with × count equal records among those shown.

The assay concerns C57BL/6 mice, intracerebral ependymoblastoma, median survival T/C. Nature of the assay: NCI In Vivo Anticancer Drug Screen. Data for tumor model Ependymoblastoma (intracerebral) in C57BL/6 mice. The settings on record: T/C endpoint: median survival time, higher T/C = longer survival. On the procedure:
The antitumor activity of compounds was measured in mice bearing transplantable tumors. Survival or tumor size were measured and the results are expressed as the measurement made in the treated group (T) divided by the measurement made in the vehicle treated control group (C). The tumor model used in this assay is Ependymoblastoma (intracerebral) in C57BL/6 mice

Where [1] appears, read: dose: 16.0 mg/kg/injection, schedule: Q01DX005 (ip), vehicle: saline with Tween-80.
Where [2] appears, read: dose: 32.0 mg/kg/injection, schedule: Q01DX005 (ip), vehicle: saline with Tween-80.
[3] abbreviates: dose: 64.0 mg/kg/injection, schedule: Q01DX005 (ip), vehicle: saline with Tween-80.
Setting [4] is: dose: 16.0 mg/kg/injection, schedule: Q01DX005 (ip), vehicle: Klucel (hydroxypropylcellulose) (HPC).
Where [5] appears, read: dose: 128.0 mg/kg/injection, schedule: Q01DX005 (ip), vehicle: saline.

In the case of `O=C1c2ccccc2C(=O)c2c(NCCNCCO)ccc(NCCNCCO)c21`, the survivor count runs as follows: (dose: 16.0 mg/kg/injection, schedule: Q01DX005 (ip), vehicle: other) 10 of 10; under setting [1], 8 of 10; (dose: 16.0 mg/kg/injection, schedule: Q01DX005 (ip), vehicle: water) 10 of 10; (dose: 32.0 mg/kg/injection, schedule: Q01DX005 (ip), vehicle: other) 8 of 10; under setting [2], 5 of 10; (dose: 32.0 mg/kg/injection, schedule: Q01DX005 (ip), vehicle: water) 10 of 10. Moreover, the survivor count (dose: 64.0 mg/kg/injection, schedule: Q01DX005 (ip), vehicle: Klucel (hydroxypropylcellulose) (HPC)) is 10 of 10; the survivor count (dose: 64.0 mg/kg/injection, schedule: Q01DX005 (ip), vehicle: other) is reported as 0 of 10; the survivor count under setting [3] is 2 of 10; the survivor count (dose: 64.0 mg/kg/injection, schedule: Q01DX005 (ip), vehicle: water) was 4 of 10 and 8 of 10; the survivor count (dose: 64.0 mg/kg/injection, schedule: Q04DX003 (ip), vehicle: water) was 8 of 10; the survivor count (dose: 128.0 mg/kg/injection, schedule: Q01DX001 (ip), vehicle: water) was 9 of 10. Besides, the survivor count runs as follows: (dose: 128.0 mg/kg/injection, schedule: Q01DX005 (ip), vehicle: other) 0 of 10; (dose: 128.0 mg/kg/injection, schedule: Q01DX005 (ip), vehicle: water) 2 of 10; (dose: 128.0 mg/kg/injection, schedule: Q04DX003 (ip), vehicle: Klucel (hydroxypropylcellulose) (HPC)) 9 of 10; (dose: 128.0 mg/kg/injection, schedule: Q04DX003 (ip), vehicle: water) 6 of 10; (dose: 256.0 mg/kg/injection, schedule: Q01DX001 (ip), vehicle: water) 1 of 10; (dose: 512.0 mg/kg/injection, schedule: Q01DX001 (ip), vehicle: Klucel (hydroxypropylcellulose) (HPC)) 0 of 10. Under “dose: 512.0 mg/kg/injection, schedule: Q01DX001 (ip), vehicle: water”, the survivor count is 1 of 10.
As for `CCC1CC2CN(CCc3c([nH]c4ccccc34)C(C(=O)OC)(c3cc4c(cc3OC)N(C)C3C(O)(C(=O)OC)C(OC(C)=O)C5(CC)C=CCN6CCC43C65)C2)C1` (stereo not drawn), the survivor count (dose: 3.2 mg/kg/injection, schedule: Q01DX005 (ip), vehicle: Klucel (hydroxypropylcellulose) (HPC)) is 3 of 6; the survivor count (dose: 6.4 mg/kg/injection, schedule: Q01DX005 (ip), vehicle: Klucel (hydroxypropylcellulose) (HPC)) is recorded as 0 of 6; the survivor count (dose: 12.8 mg/kg/injection, schedule: Q01DX005 (ip), vehicle: Klucel (hydroxypropylcellulose) (HPC)) is listed as 0 of 6.
Turning to `c1cc2n(n1)CCN2`, the survivor count is recorded as 5 of 10 (dose: 256.0 mg/kg/injection, schedule: Q01DX005 (ip), vehicle: saline) and 3 of 10 (dose: 512.0 mg/kg/injection, schedule: Q01DX005 (ip), vehicle: saline).
In the case of `CN(C)N=Nc1ccc(C(N)=O)cc1`, the T/C runs as follows: (dose: 8.0 mg/kg/injection, schedule: Q01DX005 (ip), vehicle: saline with Tween-80) 138 % of control; under setting [1], 139 % of control; under setting [2], 148 % of control. Moreover, the survivor count under setting [3] is 10 of 10 and the survivor count (dose: 128.0 mg/kg/injection, schedule: Q01DX005 (ip), vehicle: saline with Tween-80) is listed as 7 of 10.
As for `CC1CCC(NC(=O)N(CCCl)N=O)CC1` (stereo not drawn), the T/C reads like this: (dose: 0.5 mg/kg/injection, schedule: Q01DX005 (ip), vehicle: Klucel (hydroxypropylcellulose) (HPC)) 103, 106, 106 [9 of 10 alive], 113, 116, 119 % of control; (dose: 1.0 mg/kg/injection, schedule: Q01DX005 (ip), vehicle: Klucel (hydroxypropylcellulose) (HPC)) 105 [9 of 10 alive], 110 (2×), 116, 121, 133 % of control; (dose: 2.0 mg/kg/injection, schedule: Q01DX005 (ip), vehicle: Klucel (hydroxypropylcellulose) (HPC)) 101 [9 of 10 alive], 107, 112, 117 [9 of 10 alive], 119, 137 % of control; (dose: 4.0 mg/kg/injection, schedule: Q01DX005 (ip), vehicle: Klucel (hydroxypropylcellulose) (HPC)) 120, 128, 132, 133, 147, 149 % of control; (dose: 8.0 mg/kg/injection, schedule: Q01DX005 (ip), vehicle: Klucel (hydroxypropylcellulose) (HPC)) 111, 130, 149 [9 of 10 alive], 151, 160, 302 % of control; under setting [4], 125 % of control [9 of 10 alive]. For the same compound, the survivor count is 9 of 10 and 10 of 10 under setting [4]; 9 of 10 (dose: 32.0 mg/kg/injection, schedule: Q01DX005 (oral), vehicle: Klucel (hydroxypropylcellulose) (HPC)); 9 of 10 (dose: 64.0 mg/kg/injection, schedule: Q01DX005 (oral), vehicle: Klucel (hydroxypropylcellulose) (HPC)); 5 of 10 (dose: 128.0 mg/kg/injection, schedule: Q01DX005 (oral), vehicle: Klucel (hydroxypropylcellulose) (HPC)).
Regarding `CCC(=O)O[C@H]1CC[C@H]2[C@@H]3CCC4=CC(=O)CC[C@]4(C)[C@H]3CC[C@]12C`, under setting [5], the survivor count is 10 of 10.
Consider `COS(C)(=O)=O`, for which the T/C (dose: 32.0 mg/kg/injection, schedule: Q01DX005 (ip), vehicle: saline) is 145 % of control. In addition, the survivor count is 10 of 10 (dose: 64.0 mg/kg/injection, schedule: Q01DX005 (ip), vehicle: saline) and 0 of 10 under setting [5].
